Measured values: publication PMC4516353
Results are given in words; binding and its absence hold for the method and conditions named. In cells and extracts the contact can be indirect. These calls come from enrichment with a bait or labelling near it, and not all partners need be listed. Tags and fused reporters may be left off the sequences shown.

Target: T1, E2Tag-WBSCR22 (stably expressed in U2OS cells) (human) (UniProt O43709)
T1 sequence: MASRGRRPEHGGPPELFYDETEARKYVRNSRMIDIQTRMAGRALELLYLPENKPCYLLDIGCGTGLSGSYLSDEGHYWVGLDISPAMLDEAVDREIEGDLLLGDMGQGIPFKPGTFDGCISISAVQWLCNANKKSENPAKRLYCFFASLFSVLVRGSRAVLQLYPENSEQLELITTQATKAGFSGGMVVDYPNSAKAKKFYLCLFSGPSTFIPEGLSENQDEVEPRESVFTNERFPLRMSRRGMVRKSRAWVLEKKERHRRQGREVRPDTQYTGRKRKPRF
Assay: affinity purification with mass spectrometry; SILAC-coupled co-immunoprecipitation from U2OS-E2Tag-WBSCR22 (heavy) against U2OS (mock) lysates; protein G beads with anti-E2Tag antibody 5E11, 4°C overnight; IP buffer 10 mM Tris pH 7.5, 100 mM KCl, 2 mM MgCl2, 1 mM DTT, 0.5% NP-40; LC-MS/MS

B1: TRMT112 (endogenous, U2OS cells) (protein, UniProt Q9UI30 1-125)
chain: MKLLTHNLLSSHVRGVGSRGFPLRLQATEVRICPVEFNPNFVARMIPKVEWSAFLEAADNLRLIQVPKGPVEGYEENEEFLRTMHHLLLEVEVIEGTLQCPESGRMFPISRGIPNMLLSEEETES
binding: binds
